PMC9299836 (eLife, 2022)
Where “and” joins values, the source holds several entries; their conditions need not be identical. Equal entries are not always repeated. Further values from the same series stand in other lists.

Protein sequences, listed by entry. Tags and fused reporters are not part of them. Residues count along the entry.
UniProt Q14BI2, 19-872 A548F: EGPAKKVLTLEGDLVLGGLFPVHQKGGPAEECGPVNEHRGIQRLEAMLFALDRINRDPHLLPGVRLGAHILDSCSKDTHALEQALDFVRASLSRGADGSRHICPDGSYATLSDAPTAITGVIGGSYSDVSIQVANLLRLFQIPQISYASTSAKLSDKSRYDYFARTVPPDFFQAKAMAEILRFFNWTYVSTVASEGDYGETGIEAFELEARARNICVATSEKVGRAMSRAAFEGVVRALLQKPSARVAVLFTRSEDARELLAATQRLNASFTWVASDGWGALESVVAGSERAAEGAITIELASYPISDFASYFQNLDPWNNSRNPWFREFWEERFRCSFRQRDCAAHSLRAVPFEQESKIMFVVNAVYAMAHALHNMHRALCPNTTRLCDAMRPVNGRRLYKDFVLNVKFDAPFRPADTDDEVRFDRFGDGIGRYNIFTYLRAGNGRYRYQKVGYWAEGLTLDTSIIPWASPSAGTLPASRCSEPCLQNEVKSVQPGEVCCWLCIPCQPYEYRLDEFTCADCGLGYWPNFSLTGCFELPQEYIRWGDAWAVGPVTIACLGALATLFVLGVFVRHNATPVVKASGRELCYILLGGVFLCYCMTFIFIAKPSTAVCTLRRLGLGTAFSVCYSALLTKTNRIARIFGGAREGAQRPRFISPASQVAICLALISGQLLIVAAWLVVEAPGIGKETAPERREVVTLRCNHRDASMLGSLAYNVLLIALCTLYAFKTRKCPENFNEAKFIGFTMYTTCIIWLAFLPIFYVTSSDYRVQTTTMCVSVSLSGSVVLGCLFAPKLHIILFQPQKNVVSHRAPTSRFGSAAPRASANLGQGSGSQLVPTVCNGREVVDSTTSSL

What was measured:
mGluR2 [1] = target: T1, mGluR2 (Mus musculus, UniProt Q14BI2, A548F); test: Single-molecule FRET (SiMPull) of azi-CRD: population histograms and state occupancy; settings: N 3;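 also: Cy3/Cy5-labelled receptor from HEK293T cell lysate captured on anti-FLAG surfaces, apparent FRET efficiency computed from donor and acceptor intensities with crosstalk correction, pooled into population histograms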
mGluR2 [2] = target: T1, mGluR2; test: Live-cell FRET, azi-CRD (cysteine-rich domain) sensor in HEK293T cells; settings: Glutamate + 10μM modulator (NAM), single-cell replicate

## MNI-137
mGluR2 [1]; FRET 0, 15μM Glutamate + 5μM MNI-137
  smFRET Histogram, Mean: 1.90E-04
mGluR2 [1]; FRET 0, 1000μM Glutamate + 5μM MNI-137
  smFRET Histogram, Mean: 8.06E-05
mGluR2 [1]; FRET 0.02, 15μM Glutamate + 5μM MNI-137
  smFRET Histogram, Mean: 1.91E-04
mGluR2 [1]; FRET 0.02, 1000μM Glutamate + 5μM MNI-137
  smFRET Histogram, Mean: 7.71E-05
mGluR2 [1]; FRET 0.04, 15μM Glutamate + 5μM MNI-137
  smFRET Histogram, Mean: 2.94E-04
mGluR2 [1]; FRET 0.04, 1000μM Glutamate + 5μM MNI-137
  smFRET Histogram, Mean: 1.18E-04
mGluR2 [1]; FRET 0.06, 15μM Glutamate + 5μM MNI-137
  smFRET Histogram, Mean: 5.40E-04
mGluR2 [1]; FRET 0.06, 1000μM Glutamate + 5μM MNI-137
  smFRET Histogram, Mean: 2.21E-04
mGluR2 [1]; FRET 0.08, 15μM Glutamate + 5μM MNI-137
  smFRET Histogram, Mean: 0.00117
mGluR2 [1]; FRET 0.08, 1000μM Glutamate + 5μM MNI-137
  smFRET Histogram, Mean: 3.52E-04
mGluR2 [1]; FRET 0.1, 1000μM Glutamate + 5μM MNI-137
  smFRET Histogram, Mean: 7.30E-04
mGluR2 [1]; FRET 0.12, 1000μM Glutamate + 5μM MNI-137
  smFRET Histogram, Mean: 0.00117
mGluR2 [1]; FRET 0.14, 1000μM Glutamate + 5μM MNI-137
  smFRET Histogram, Mean: 0.00156
mGluR2 [1]; FRET 0.16, 1000μM Glutamate + 5μM MNI-137
  smFRET Histogram, Mean: 0.00286
mGluR2 [1]; FRET 0.18, 1000μM Glutamate + 5μM MNI-137
  smFRET Histogram, Mean: 0.00466
mGluR2 [1]; FRET 0.2, 1000μM Glutamate + 5μM MNI-137
  smFRET Histogram, Mean: 0.00732
mGluR2 [1]; FRET 0.22, 1000μM Glutamate + 5μM MNI-137
  smFRET Histogram, Mean: 0.01064
mGluR2 [1]; FRET 0.24, 1000μM Glutamate + 5μM MNI-137
  smFRET Histogram, Mean: 0.01539
mGluR2 [1]; FRET 0.26, 1000μM Glutamate + 5μM MNI-137
  smFRET Histogram, Mean: 0.02135
mGluR2 [1]; FRET 0.28, 1000μM Glutamate + 5μM MNI-137
  smFRET Histogram, Mean: 0.02877
mGluR2 [1]; FRET 0.3, 1000μM Glutamate + 5μM MNI-137
  smFRET Histogram, Mean: 0.03634
mGluR2 [1]; FRET 0.32, 1000μM Glutamate + 5μM MNI-137
  smFRET Histogram, Mean: 0.04326
mGluR2 [1]; FRET 0.34, 1000μM Glutamate + 5μM MNI-137
  smFRET Histogram, Mean: 0.04886
mGluR2 [1]; FRET 0.36, 1000μM Glutamate + 5μM MNI-137
  smFRET Histogram, Mean: 0.05287
mGluR2 [1]; FRET 0.38, 1000μM Glutamate + 5μM MNI-137
  smFRET Histogram, Mean: 0.05298
mGluR2 [1]; FRET 0.4, 1000μM Glutamate + 5μM MNI-137
  smFRET Histogram, Mean: 0.05067
mGluR2 [1]; FRET 0.42, 1000μM Glutamate + 5μM MNI-137
  smFRET Histogram, Mean: 0.04614
mGluR2 [1]; FRET 0.44, 1000μM Glutamate + 5μM MNI-137
  smFRET Histogram, Mean: 0.04059
mGluR2 [1]; FRET 0.46, 1000μM Glutamate + 5μM MNI-137
  smFRET Histogram, Mean: 0.0349
mGluR2 [1]; FRET 0.48, 1000μM Glutamate + 5μM MNI-137
  smFRET Histogram, Mean: 0.02946
mGluR2 [1]; FRET 0.5, 1000μM Glutamate + 5μM MNI-137
  smFRET Histogram, Mean: 0.02497
mGluR2 [1]; FRET 0.52, 1000μM Glutamate + 5μM MNI-137
  smFRET Histogram, Mean: 0.02157
mGluR2 [1]; FRET 0.56, 1000μM Glutamate + 5μM MNI-137
  smFRET Histogram, Mean: 0.01843
mGluR2 [1]; FRET 0.6, 1000μM Glutamate + 5μM MNI-137
  smFRET Histogram, Mean: 0.01844
mGluR2 [1]; FRET 0.64, 1000μM Glutamate + 5μM MNI-137
  smFRET Histogram, Mean: 0.01921
mGluR2 [1]; FRET 0.66, 1000μM Glutamate + 5μM MNI-137
  smFRET Histogram, Mean: 0.02051
mGluR2 [1]; FRET 0.7, 1000μM Glutamate + 5μM MNI-137
  smFRET Histogram, Mean: 0.0221
mGluR2 [1]; FRET 0.72, 1000μM Glutamate + 5μM MNI-137
  smFRET Histogram, Mean: 0.02264
mGluR2 [1]; FRET 0.74, 1000μM Glutamate + 5μM MNI-137
  smFRET Histogram, Mean: 0.02318
mGluR2 [1]; FRET 0.76, 1000μM Glutamate + 5μM MNI-137
  smFRET Histogram, Mean: 0.02287
mGluR2 [1]; FRET 0.78, 1000μM Glutamate + 5μM MNI-137
  smFRET Histogram, Mean: 0.02218
mGluR2 [1]; FRET 0.8, 1000μM Glutamate + 5μM MNI-137
  smFRET Histogram, Mean: 0.02218
mGluR2 [1]; FRET 0.82, 1000μM Glutamate + 5μM MNI-137
  smFRET Histogram, Mean: 0.02139
mGluR2 [1]; FRET 0.88, 1000μM Glutamate + 5μM MNI-137
  smFRET Histogram, Mean: 0.01677
mGluR2 [1]; FRET 0.9, 1000μM Glutamate + 5μM MNI-137
  smFRET Histogram, Mean: 0.01432
mGluR2 [1]; FRET 0.92, 1000μM Glutamate + 5μM MNI-137
  smFRET Histogram, Mean: 0.01194
mGluR2 [1]; FRET 0.94, 15μM Glutamate + 5μM MNI-137
  smFRET Histogram, Mean: 0.00365
mGluR2 [1]; FRET 0.94, 1000μM Glutamate + 5μM MNI-137
  smFRET Histogram, Mean: 0.00931
mGluR2 [1]; FRET 0.96, 15μM Glutamate + 5μM MNI-137
  smFRET Histogram, Mean: 0.00278
mGluR2 [1]; FRET 0.96, 1000μM Glutamate + 5μM MNI-137
  smFRET Histogram, Mean: 0.00698
mGluR2 [1]; FRET 0.98, 15μM Glutamate + 5μM MNI-137
  smFRET Histogram, Mean: 0.00234
mGluR2 [1]; FRET 0.98, 1000μM Glutamate + 5μM MNI-137
  smFRET Histogram, Mean: 0.00498
mGluR2 [1]; FRET 1, 15μM Glutamate + 5μM MNI-137
  smFRET Histogram, Mean: 0.00153
mGluR2 [1]; FRET 1, 1000μM Glutamate + 5μM MNI-137
  smFRET Histogram, Mean: 0.00349
mGluR2 [1]; FRET 1.02, 15μM Glutamate + 5μM MNI-137
  smFRET Histogram, Mean: 9.54E-04
mGluR2 [1]; FRET 1.02, 1000μM Glutamate + 5μM MNI-137
  smFRET Histogram, Mean: 0.00213
mGluR2 [1]; FRET 1.04, 15μM Glutamate + 5μM MNI-137
  smFRET Histogram, Mean: 6.26E-04
mGluR2 [1]; FRET 1.04, 1000μM Glutamate + 5μM MNI-137
  smFRET Histogram, Mean: 0.00117
mGluR2 [1]; FRET 1.06, 15μM Glutamate + 5μM MNI-137
  smFRET Histogram, Mean: 3.38E-04
mGluR2 [1]; FRET 1.06, 1000μM Glutamate + 5μM MNI-137
  smFRET Histogram, Mean: 7.38E-04
mGluR2 [1]; FRET 1.08, 15μM Glutamate + 5μM MNI-137
  smFRET Histogram, Mean: 2.07E-04
mGluR2 [1]; FRET 1.08, 1000μM Glutamate + 5μM MNI-137
  smFRET Histogram, Mean: 3.26E-04
mGluR2 [1]; FRET 1.1, 15μM Glutamate + 5μM MNI-137
  smFRET Histogram, Mean: 1.36E-04
mGluR2 [1]; FRET 1.1, 1000μM Glutamate + 5μM MNI-137
  smFRET Histogram, Mean: 2.33E-04
mGluR2 [1]; FRET 1.12, 15μM Glutamate + 5μM MNI-137
  smFRET Histogram, Mean: 6.87E-05
mGluR2 [1]; FRET 1.12, 1000μM Glutamate + 5μM MNI-137
  smFRET Histogram, Mean: 1.43E-04
mGluR2 [1]; FRET 1.14, 15μM Glutamate + 5μM MNI-137
  smFRET Histogram, Mean: 4.72E-05
mGluR2 [1]; FRET 1.14, 1000μM Glutamate + 5μM MNI-137
  smFRET Histogram, Mean: 9.47E-05
mGluR2 [1]; FRET 1.16, 15μM Glutamate + 5μM MNI-137
  smFRET Histogram, Mean: 3.60E-05
mGluR2 [1]; FRET 1.18, 15μM Glutamate + 5μM MNI-137
  smFRET Histogram, Mean: 1.28E-05
mGluR2 [1]; FRET 1.18, 1000μM Glutamate + 5μM MNI-137
  smFRET Histogram, Mean: 4.15E-05
mGluR2 [1]; FRET 1.2, 15μM Glutamate + 5μM MNI-137
  smFRET Histogram, Mean: 3.64E-05
mGluR2 [1]; FRET 1.2, 1000μM Glutamate + 5μM MNI-137
  smFRET Histogram, Mean: 1.07E-04
mGluR2 [2]; log[Glutamate] (M) -3
  azi-CRD normalized FRET response, individual cell: 0.8599
mGluR2 [2]; log[Glutamate] (M) -4.52288
  azi-CRD normalized FRET response, individual cell: 0.612 and 0.5545 and 0.6252 and 0.5963 and 0.6607 and 0.6606 and 0.6075 (2×) and 0.6161 and 0.6314 and 0.5831 and 0.6211 and 0.6312 and 0.6918 and 0.4556 and 0.5894 and 0.603 and 0.6513 and 0.6442 and 0.4891 and 0.5784 and 0.6509 and 0.5804 and 0.6046 and 0.6034 and 0.561 and 0.5497
